Article PMC5076501
No constants are given. Whether binding was seen depends on the method and setting. Binding seen in cells or lysates may run through a third protein. Some entries that bind do so weakly or less than the wild type.

By UniProt entry, the sequences of proteins in these tests, tags left out.
UniProt P0DMV8: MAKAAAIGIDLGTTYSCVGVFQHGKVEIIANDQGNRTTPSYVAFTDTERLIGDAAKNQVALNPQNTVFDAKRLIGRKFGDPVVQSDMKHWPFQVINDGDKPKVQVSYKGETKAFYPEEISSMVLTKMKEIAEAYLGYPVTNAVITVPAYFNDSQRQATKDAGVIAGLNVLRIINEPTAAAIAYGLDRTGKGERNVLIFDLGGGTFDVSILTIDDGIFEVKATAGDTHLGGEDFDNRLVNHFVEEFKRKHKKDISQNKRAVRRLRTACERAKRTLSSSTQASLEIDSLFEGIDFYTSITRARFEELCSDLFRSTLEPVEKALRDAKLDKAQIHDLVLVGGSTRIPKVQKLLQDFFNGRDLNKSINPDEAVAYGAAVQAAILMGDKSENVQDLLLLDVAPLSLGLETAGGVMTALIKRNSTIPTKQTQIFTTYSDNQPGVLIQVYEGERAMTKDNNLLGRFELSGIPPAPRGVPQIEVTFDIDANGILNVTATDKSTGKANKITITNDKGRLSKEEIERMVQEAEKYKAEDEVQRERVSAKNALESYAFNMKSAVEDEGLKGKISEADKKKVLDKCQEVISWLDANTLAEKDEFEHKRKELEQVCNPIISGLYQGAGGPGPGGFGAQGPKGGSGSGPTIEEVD

Tests used:
[1] = target: CFP-tagged dDAT-G108Q (Drosophila melanogaster) (UniProt Q7K4Y6); test: co-IP; tagged DAT precipitated with anti-GFP antibody and protein A-Sepharose at 4 °C from detergent lysates (50 mM Tris-HCl pH 8.0, 150 mM NaCl, 1% dodecyl maltoside, 1 mM EDTA) of stably transfected HEK293 cells; blots for calnexin and HSP70-1A; in Fig. 5c cells untreated or pretreated with noribogaine, pifithrin-μ or both
[2] = target: YFP-tagged dDAT-G108Q (Drosophila melanogaster) (UniProt Q7K4Y6); test: as above

Row | Molecule | binding [1] | binding [2]
1 | HSP70-1A (from UniProt P0DMV8 1-641) | binds | binds
2 | calnexin (protein, UniProt P27824 21-592) HDGHDDDVIDIEDDLDDVIEEVEDSKPDTTAPPSSPKVTYKAPVPTGEVYFADSFDRGTLSGWILSKAKKDDTDDEIAKYDGKWEVEEMKESKLPGDKGLVLMSRAKHHAISAKLNKPFLFDTKPLIVQYEVNFQNGIECGGAYVKLLSKTPELNLDQFHDKTPYTIMFGPDKCGEDYKLHFIFRHKNPKTGIYEEKHAKRPDADLKTYFTDKKTHLYTLILNPDNSFEILVDQSVVNSGNLLNDMTPPVNPSREIEDPEDRKPEDWDERPKIPDPEAVKPDDWDEDAPAKIPDEEATKPEGWLDDEPEYVPDPDAEKPEDWDEDMDGEWEAPQIANPRCESAPGCGVWQRPVIDNPNYKGKWKPPMIDNPSYQGIWKPRKIPNPDFFEDLEPFRMTPFSAIGLELWSMTSDIFFDNFIICADRRIVDDWANDGWGLKKAADGAAEPGVVGQMIEAAEERPWLWVVYILTVALPVFLVILFCCSGKKQTSGMEYKKTDAPQPDVKEEEEEKEEEKDKGDEEEEGEEKLEEKQKSDAEEDGGTVSQEEEDRKPKAEEDEILNRSPRNRKPRRE | binds | binds
